Structures can show the parent of a compound that is named as a salt. The list shows a part of the results. Single values are uncertain, as repeats are few or missing.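 Primary human fetal astrocytes engulfed labelled rat cortical synaptosomes, measured as a red/green ratio corrected for calcein live-cell signal and scaled to the plate median. Toxicity meant calcein falling over 30%; decreased phagocytosis meant below 70% of median above 5 µM.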
Key:
Conditions in all cases: 24 h
Human fetal astrocytes [1] = assay: loss of total cells relative to no-compound high-control median (toxicity); higher = more toxic (fewer cells)
Human fetal astrocytes [2] = assay: synaptosome phagocytosis (pHrodo/calcein intensity ratio) relative to plate median of data wells; higher = more phagocytosis
Human fetal astrocytes [3] = assay: loss of total cells relative to no-compound high-control median (toxicity); higher = more toxic (fewer cells); remark: listed apart in the source
Human fetal astrocytes [4] = assay: synaptosome phagocytosis (pHrodo/calcein intensity ratio) relative to plate median of data wells; higher = more phagocytosis; remark: listed apart in the source

Structure (SMILES)	loss of total cells (Human fetal astrocytes [1]; 1.39 µM) [%]	loss of total cells (Human fetal astrocytes [1]; 2.78 µM) [%]	loss of total cells (Human fetal astrocytes [1]; 5.56 µM) [%]	loss of total cells (Human fetal astrocytes [1]; 11.11 µM) [%]	loss of total cells (Human fetal astrocytes [1]; 22.22 µM) [%]	synaptosome phagocytosis (Human fetal astrocytes [2]; 1.39 µM) [%]	synaptosome phagocytosis (Human fetal astrocytes [2]; 2.78 µM) [%]	synaptosome phagocytosis (Human fetal astrocytes [2]; 5.56 µM) [%]	synaptosome phagocytosis (Human fetal astrocytes [2]; 11.11 µM) [%]	synaptosome phagocytosis (Human fetal astrocytes [2]; 22.22 µM) [%]	loss of total cells (Human fetal astrocytes [3]; 1.39 µM) [%]	loss of total cells (Human fetal astrocytes [3]; 2.78 µM) [%]	loss of total cells (Human fetal astrocytes [3]; 5.56 µM) [%]	loss of total cells (Human fetal astrocytes [3]; 11.11 µM) [%]	loss of total cells (Human fetal astrocytes [3]; 22.22 µM) [%]	synaptosome phagocytosis (Human fetal astrocytes [4]; 1.39 µM) [%]	synaptosome phagocytosis (Human fetal astrocytes [4]; 2.78 µM) [%]	synaptosome phagocytosis (Human fetal astrocytes [4]; 5.56 µM) [%]	synaptosome phagocytosis (Human fetal astrocytes [4]; 11.11 µM) [%]	synaptosome phagocytosis (Human fetal astrocytes [4]; 22.22 µM) [%]
O=C1CC[C@@]2(O)[C@H]3Cc4ccc(O)c5c4[C@@]2(CCN3CC2CC2)[C@H]1O5	29	-29.4	8.7	14.1	-7.2	150	119	94.2	120	97	–	–	–	–	–	–	–	–	–	–
CC1=C2[C@H]3OC(=O)[C@@H](C)[C@@H]3CC[C@@]2(C)C=CC1=O	-13.1	-12.6	2.2	14.9	11.9	93	74.6	121	157	116	–	–	–	–	–	–	–	–	–	–
COC(=O)NC(=S)Nc1ccccc1NC(=S)NC(=O)OC	16.2	15.5	-0.7	13.8	10.6	103	48	107	137	103	–	–	–	–	–	–	–	–	–	–
CC(C)[N+](C)(CCC(C(N)=O)(c1ccccc1)c1ccccc1)C(C)C	12.8	-12.5	-20.2	14.7	-27.7	111	111	96.9	88.9	60.2	–	–	–	–	–	–	–	–	–	–
c1cncc([C@@H]2CCCCN2)c1	-18.9	-5.4	-7.3	14.2	-4.4	145	104	114	106	94.5	–	–	–	–	–	–	–	–	–	–
O=c1[nH]oc2c1CCNC2 [THIP hydrochloride]	13.4	4	21.7	6.3	21.2	140	135	112	99.8	131	-9.6	-11.1	-6.2	-20.3	-9.9	128	117	125	123	93.2
C1CCc2nnnn2CC1 [Pentylenetetrazole]	27.9	8.6	-16	38.7	22.6	121	93	77.9	153	114	-20.4	18.6	-8.9	7.6	1.9	98.7	91.4	110	104	108
COc1cc([C@@H]2c3cc4c(cc3[C@H](OC(C)=O)[C@H]3COC(=O)[C@H]23)OCO4)cc(OC)c1OC	-7.4	27.8	15.4	18.9	23	94	83.1	76.3	40.8	79.4	–	–	–	–	–	–	–	–	–	–
CCOC(=O)C1C(C=C(C)C)C1(C)C (stereo not given)	-10.7	-3.2	0	14.2	16.3	138	104	116	154	105	–	–	–	–	–	–	–	–	–	–
CCC(C)C(=O)OC1CC2(C)C(c3ccoc3)OC(=O)CC23OC2(C)OC34C(OC(=O)C(C)C)C3(O)C(OC(=O)C5(C)OC5C)C5(C)CC3(O)C(C)(C5CC(=O)OC)C14O2 (stereo not given)	11.2	-8	-22.9	31	15.9	161	108	102	136	128	–	–	–	–	–	–	–	–	–	–
Oc1ccc(Cl)cc1	-32.4	-11.9	3.3	18	21	131	91.5	124	105	127	–	–	–	–	–	–	–	–	–	–
Cc1cc(OC(=O)N2CCCCC2)c(C(C)C)cc1[N+](C)(C)C	9	-4	13.9	12.2	8.1	103	88.2	96.3	118	55.6	–	–	–	–	–	–	–	–	–	–
O=C(O)CF	-2.5	1.8	10.9	-17.2	-4.5	90.9	100	84.8	118	131	–	–	–	–	–	–	–	–	–	–
CC(C)N(CCC(C(N)=O)(c1ccccc1)c1ccccn1)C(C)C (stereo not given) [Disopyramide]	8.6	-22	7.7	-10.1	52	90.1	95.1	87.4	116	121	–	–	–	–	–	–	–	–	–	–
CC(C)[C@@H]1NC(=O)[C@H](C)OC(=O)[C@@H](C(C)C)NC(=O)[C@@H](C(C)C)OC(=O)[C@H](C(C)C)NC(=O)[C@H](C)OC(=O)[C@@H](C(C)C)NC(=O)[C@@H](C(C)C)OC(=O)[C@H](C(C)C)NC(=O)[C@H](C)OC(=O)[C@@H](C(C)C)NC(=O)[C@@H](C(C)C)OC1=O [Valinomycin]	9.8	31.4	24.2	26.4	31.1	37.7	50.1	58.2	66.6	43.9	–	–	–	–	–	–	–	–	–	–
C[C@]12CC[C@H]3[C@@H](CCC4=CC(=O)CC[C@@]43C)[C@@H]1CC[C@@H]2O	-14.9	-2.1	-5.7	12.5	-4	100	116	109	92.5	102	–	–	–	–	–	–	–	–	–	–
O=C1NC(=O)C(=O)C(=O)N1	-6.1	5.4	-4.3	9.6	9.1	101	68.6	97.3	107	75.5	–	–	–	–	–	–	–	–	–	–
COC(C)(C)CCC[C@H](C)C/C=C/C(C)=C/C(=O)OC(C)C	22.7	17	8	13.8	19.7	124	140	94	96.3	112	–	–	–	–	–	–	–	–	–	–
[N-]=[N+]=CC(=O)OC[C@H](N)C(=O)O	9.7	9	-1.4	14.6	28	99.8	125	115	101	95.2	–	–	–	–	–	–	–	–	–	–
CN1[C@@H]2C[C@@H](OC(=O)[C@H](CO)c3ccccc3)C[C@H]1[C@@H]1O[C@@H]12	-12.4	1.5	-2.7	-18	1.1	97.2	103	95.4	102	101	–	–	–	–	–	–	–	–	–	–
COC(=O)C(c1ccccc1)C1CCCCN1 (stereo not given)	12.7	-2.7	21.4	-3.2	16.7	129	94.1	158	94.3	103	–	–	–	–	–	–	–	–	–	–
N[C@H](CO)Cc1ccccc1	-0.8	-6.9	5.1	0.7	-0.7	78.4	138	124	94.2	128	–	–	–	–	–	–	–	–	–	–
COc1cccc2c1cc([N+](=O)[O-])c1c(C(=O)O)cc3c(c12)OCO3	-23	-13.4	-5.9	-0.7	8.9	82.8	85.2	99.5	114	94.6	–	–	–	–	–	–	–	–	–	–
C/C=C/c1ccc2c(c1)OCO2	-20.5	4.7	13.9	20.3	0.7	104	58.1	117	142	94.4	–	–	–	–	–	–	–	–	–	–
COc1cc([C@@H]2c3cc4c(cc3[C@@H](O)[C@H]3COC(=O)[C@H]23)OCO4)cc(OC)c1O	3.3	11.9	12.5	22.3	23	108	50.1	120	77.1	60.7	–	–	–	–	–	–	–	–	–	–
Cc1cc2c(C(C)C)c(O)c(O)c(C=O)c2c(O)c1-c1c(C)cc2c(C(C)C)c(O)c(O)c(C=O)c2c1O	-18.9	-6.1	-2.2	19.6	22.2	105	124	97.4	71.9	75.3	–	–	–	–	–	–	–	–	–	–
C=CCc1cc(OC)c2c(c1OC)OCO2	2.5	6.9	-62.3	2.1	17.4	89.5	125	0	117	115	–	–	–	–	–	–	–	–	–	–
CN1[C@@H]2CC[C@H]1C[C@@H](OC(=O)[C@H](CO)c1ccccc1)C2	9.8	-21.4	-0.7	11.2	-19.1	109	91.3	114	81.4	99.1	–	–	–	–	–	–	–	–	–	–
NC(=O)c1ccc(N)nc1	-27.9	-6.9	0.7	13.5	-2.2	88.2	111	94	83.1	79	–	–	–	–	–	–	–	–	–	–
COc1cc2c(cc1OC)[C@@]13CCN4CC5=CCO[C@H]6CC(=O)N2[C@H]1[C@H]6[C@H]5C[C@H]43	11	-7.8	-8.4	-1.4	-21.6	123	120	84.8	88.4	108	–	–	–	–	–	–	–	–	–	–

Single records, as listed above. Order of values: loss of total cells (Human fetal astrocytes [1]; 1.39 µM) [%]	loss of total cells (Human fetal astrocytes [1]; 2.78 µM) [%]	loss of total cells (Human fetal astrocytes [1]; 5.56 µM) [%]	loss of total cells (Human fetal astrocytes [1]; 11.11 µM) [%]	loss of total cells (Human fetal astrocytes [1]; 22.22 µM) [%]	synaptosome phagocytosis (Human fetal astrocytes [2]; 1.39 µM) [%]	synaptosome phagocytosis (Human fetal astrocytes [2]; 2.78 µM) [%]	synaptosome phagocytosis (Human fetal astrocytes [2]; 5.56 µM) [%]	synaptosome phagocytosis (Human fetal astrocytes [2]; 11.11 µM) [%]	synaptosome phagocytosis (Human fetal astrocytes [2]; 22.22 µM) [%]	loss of total cells (Human fetal astrocytes [3]; 1.39 µM) [%]	loss of total cells (Human fetal astrocytes [3]; 2.78 µM) [%]	loss of total cells (Human fetal astrocytes [3]; 5.56 µM) [%]	loss of total cells (Human fetal astrocytes [3]; 11.11 µM) [%]	loss of total cells (Human fetal astrocytes [3]; 22.22 µM) [%]	synaptosome phagocytosis (Human fetal astrocytes [4]; 1.39 µM) [%]	synaptosome phagocytosis (Human fetal astrocytes [4]; 2.78 µM) [%]	synaptosome phagocytosis (Human fetal astrocytes [4]; 5.56 µM) [%]	synaptosome phagocytosis (Human fetal astrocytes [4]; 11.11 µM) [%]	synaptosome phagocytosis (Human fetal astrocytes [4]; 22.22 µM) [%]
O=C(O)CF is listed as -2.5	1.8	10.9	-17.2	-4.5	90.9	100	84.8	118	131	–	–	–	–	–	–	–	–	–	–
CC1=C2[C@H]3OC(=O)[C@@H](C)[C@@H]3CC[C@@]2(C)C=CC1=O is listed as -13.1	-12.6	2.2	14.9	11.9	93	74.6	121	157	116	–	–	–	–	–	–	–	–	–	–
